Reference: patent US12378320B2, “Methods for treating pancreatitis” (Cold Spring Harbor Laboratory, priority 2018, dated 2025)

Tested on: CA19-9 modified proteins
Experiment: CA19-9 IP/MS (iTRAQ) of organoid conditioned media after Dox treatment
Parameters: species or system mouse
Details: CA19-9 IP/MS relative abundance; for 17 0H NS19 / 17 8H 5B1 / 17 8H NS19: A217 (genetic negative) organoid conditioned media; for 17 0H NS19 / 20 0H 5B1: 0H (before treatment); for 17 0H NS19 / 17 8H NS19: IP with NS19-9; for 17 0H NS19: reference channel = 1; for 17 8H 5B1 / 17 8H NS19: after 8 hours; for 17 8H 5B1 / 20 0H 5B1: IP with 5B1; for 20 0H 5B1: A220 (C;R^LSL;F) organoid conditioned media

| Molecule | 17 0H NS19 | 17 8H 5B1 | 17 8H NS19 | 20 0H 5B1 |
| --- | --- | --- | --- | --- |
| P50247 (protein, UniProt P50247 1-432, looked up, full-length) MSDKLPYKVADIGLAAWGRKALDIAENEMPGLMRMREMYSASKPLKGARIAGCLHMTVETAVLIETLVALGAEVRWSSCNIFSTQDHAAAAIAKAGIPVFAWKGETDEEYLWCIEQTLHFKDGPLNMILDDGGDLTNLIHTKYPQLLSGIRGISEETTTGVHNLYKMMSNGILKVPAINVNDSVTKSKFDNLYGCRESLIDGIKRATDVMIAGKVAVVAGYGDVGKGCAQALRGFGARVIITEIDPINALQAAMEGYEVTTMDEACKEGNIFVTTTGCVDIILGRHFEQMKDDAIVCNIGHFDVEIDVKWLNENAVEKVNIKPQVDRYWLKNGRRIILLAEGRLVNLGCAMGHPSFVMSNSFTNQVMAQIELWTHPDKYPVGVHFLPKKLDEAVAEAHLGKLNVKLTKLTEKQAQYLGMPINGPFKPDHYRY | 1 | 7.244 | 0.536 | 5.616 |
| P01863 (protein, UniProt P01863 1-330, looked up, full-length) AKTTAPSVYPLAPVCGDTTGSSVTLGCLVKGYFPEPVTLTWNSGSLSSGVHTFPAVLQSDLYTLSSSVTVTSSTWPSQSITCNVAHPASSTKVDKKIEPRGPTIKPCPPCKCPAPNLLGGPSVFIFPPKIKDVLMISLSPIVTCVVVDVSEDDPDVQISWFVNNVEVHTAQTQTHREDYNSTLRVVSALPIQHQDWMSGKEFKCKVNNKDLPAPIERTISKPKGSVRAPQVYVLPPPEEEMTKKQVTLTCMVTDFMPEDIYVEWTNNGKTELNYKNTEPVLDSDGSYFMYSKLRVEKKNWVERNSYSCSVVHEGLHNHHTTKSFSRTPGK | 1 | 0.46 | 0.984 | 0.417 |
| P01867 (protein, UniProt P01867 1-404, looked up, full-length) KTTPPSVYPLAPGCGDTTGSSVTLGCLVKGYFPESVTVTWNSGSLSSSVHTFPALLQSGLYTMSSSVTVPSSTWPSQTVTCSVAHPASSTTVDKKLEPSGPISTINPCPPCKECHKCPAPNLEGGPSVFIFPPNIKDVLMISLTPKVTCVVVDVSEDDPDVQISWFVNNVEVHTAQTQTHREDYNSTIRVVSTLPIQHQDWMSGKEFKCKVNNKDLPSPIERTISKIKGLVRAPQVYILPPPAEQLSRKDVSLTCLVVGFNPGDISVEWTSNGHTEENYKDTAPVLDSDGSYFIYSKLNMKTSKWEKTDSFSCNVRHEGLKNYYLKKTISRSPGLDLDDICAEAKDGELDGLWTTITIFISLFLLSVCYSASVTLFKVKWIFSSVVELKQKISPDYRNMIGQGA | 1 | 0.439 | 1.002 | 0.388 |
| P01796 (protein, UniProt P01796 1-113, looked up, full-length) EVKLEESGGGLVQPGGSMKLSCVASGFTFSNYWMNWVRQSPEKGLEWVAEIRLKSHNYATHYAESVKGRFTISRDDSKSSVYLQMNNLRAEDTGIYYCTTGFAYWGQGTLVTV | 1 | 0.164 | 0.872 | 0.159 |
| P01868 (protein, UniProt P01868 1-324, looked up, full-length) AKTTPPSVYPLAPGSAAQTNSMVTLGCLVKGYFPEPVTVTWNSGSLSSGVHTFPAVLQSDLYTLSSSVTVPSSPRPSETVTCNVAHPASSTKVDKKIVPRDCGCKPCICTVPEVSSVFIFPPKPKDVLTITLTPKVTCVVVDISKDDPEVQFSWFVDDVEVHTAQTQPREEQFNSTFRSVSELPIMHQDWLNGKEFKCRVNSAAFPAPIEKTISKTKGRPKAPQVYTIPPPKEQMAKDKVSLTCMITDFFPEDITVEWQWNGQPAENYKNTQPIMNTNGSYFVYSKLNVQKSNWEAGNTFTCSVLHEGLHNHHTEKSLSHSPGK | 1 | 0.094 | 1.113 | 0.098 |
